From PubChem BioAssay AID651640 (Broad Institute, 2012)
Values joined by “and” are separate entries in the source; they are usually repeats but may differ in a detail not shown here. Equal entries are not always repeated. In all, about 350,000 compounds went through this assay and about 6,000 (1.7%) were called active. The shares of active, inactive and inconclusive entries below differ from those in the screen. Rule as the data show it: active = CPE inhibition above about 20% (passing the limit was not always enough); inconclusive = no clear call, values can overlap the other calls; tested in BHK-21 cells. More than one record can exist for a structure, and the calls need not agree.

Assay: protection of cells from dengue 2 killing – plate reader, single concentration, primary screen (AID 651640);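 also: 0% = median of neutral control wells and 100% = median of positive control wells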
Conditions: DENV2-infected cells, cytopathic effect rescue, at 9.99 µM, stronger effect = higher value

SMILES	CPE inhibition
CO[C@H]1CN(C)C(=O)c2cc(NC(C)=O)ccc2OC[C@H](C)N(C(=O)CC2CC2)C[C@H]1C	inactive: 0.825%
CC(C)Cn1c(N)c(C(=O)COC(=O)c2ccc([N+](=O)[O-])o2)c(=O)n(C)c1=O	inconclusive: 24.1%
O=C(NC1CCCCC1)N1CCN(c2ccc([N+](=O)[O-])cc2)CC1	inconclusive: 27.4%
C[C@@H]1CN([C@H](C)CO)C(=O)Cc2cc(NS(=O)(=O)c3ccccc3)ccc2O[C@@H]1CN(C)Cc1ccc(-c2ccccc2)cc1	active: 56.2%
C[C@H]1CN([C@@H](C)CO)C(=O)c2cccc(NS(=O)(=O)c3ccc(Cl)cc3)c2O[C@H]1CN(C)C(=O)Nc1ccccc1	active: 39.5%
Cc1ccc2nc(N3C(=O)C(O)=C(C(=O)c4ccc(C)o4)C3c3ccc(O)cc3)sc2c1 (configuration not stated)	inconclusive: 35.6%
O=C(C[C@H]1CC[C@H]2[C@@H](COC[C@@H](O)CN2S(=O)(=O)c2cccc(Cl)c2)O1)NC1CCC1	inactive: 2.78%
O=C(C[C@@H]1C[C@@H]2c3cc(NC(=O)C4CCC4)ccc3O[C@@H]2[C@@H](CO)O1)NCCc1ccccc1	inconclusive: 27.8%
COC(=O)c1c(-c2ccc(OC)cc2)sc2cc3c(cc12)OCO3	active: 20.5%
COc1cccc(NC(=O)N2[C@@H]3CNC[C@H]2C3c2ccc(-c3cccnc3)cc2)c1 (some centres not stated)	active: 22.1%
C[C@H](CO)N1C[C@H](C)[C@H](CN(C)CC2CCOCC2)Oc2ncc(C#C[C@@H](C)O)cc2C1=O	inactive: -2.5%
O=C(Nc1ccc([N+](=O)[O-])cc1)N1CCc2ccccc2C1	active: 23.4%
CCN(CC(=O)Nc1ccc2c(c1)OCCO2)C(=O)c1cccc(OCC(C)C)c1	inconclusive: 58.7%
C[C@@H]1CCCCO[C@H](CN(C)S(C)(=O)=O)[C@H](C)CN([C@@H](C)CO)C(=O)c2cc(N(C)C)ccc2O1	inconclusive: 66.1%
COc1ccccc1/C=C1\SC(=S)N(CCC(=O)Nc2ccc(C(=O)O)c(O)c2)C1=O	inactive: 9.23%
CN(CC(=O)Nc1ccccc1Br)C(=O)c1cc(Cl)nc2ccccc12	inconclusive: 30%
O=C(NCCN1CCCCC1)[C@@H]1N[C@@H]2c3ccc(-c4ccccc4)c(=O)n3C[C@@H]2[C@H]1CO	inconclusive: 61.5%
Cc1cccc(OCCNC(=O)c2ccc(Cl)c(S(=O)(=O)NCc3cccnc3)c2)c1	inconclusive: 57.7%
CC1CN(S(=O)(=O)c2ccc(C(=O)OCc3ccc(C#N)cc3)cc2)CC(C)O1 (configuration not stated)	inconclusive: 44.4%
O=C(c1cccc([N+](=O)[O-])c1)c1cc2ccccc2o1	active: 45.9%
CC1CN(S(=O)(=O)c2cccc(C(=O)OC(C)C(=O)NC3CCCCC3C)c2)CC(C)O1 (configuration not stated)	inconclusive: 58.2%
O=C(O)c1ccc2c(c1)C(=O)N(c1ccc(Nc3ccccc3)cc1)C2=O	inconclusive: 25.5%
COC(=O)c1oc2ccccc2c1NC(=O)c1ccccc1O	inactive: -3.68%
CC(C)(C)c1ccc(S(=O)(=O)N2CCC(N3CCCCC3)CC2)cc1	inconclusive: 21%

SMILES	CPE inhibition
O=C(Nc1ccc(F)cc1)N1C[C@H]2[C@@H](c3ccccc31)[C@H](CO)N2C(=O)Cc1ccncc1	inconclusive: 28.3%
C=CCn1c(C)nnc1SCC(=O)Nc1nccs1	inconclusive: 33.5%
COc1cc(/C=N/NC(=O)CCn2c3ccccc3c3ccccc32)cc(OC)c1OC	inactive: 0.921%
C=CCn1nnnc1SCC(=O)Nc1ccc(C(=O)OC)cc1	inactive: -5.43%
COC(=O)C1=C[C@@H](C(=O)OC)[C@@H]2C3=C(C(=O)[C@@]2(C)NC(=O)c2ccccc2)[C@H](C)C(C(=O)OC)=C(C(=O)OC)[C@@H]3C1	active: 24.4%
CN1CCCC2(CCCN(Cc3nc(Cc4cccc(C(F)(F)F)c4)no3)C2)C1 (configuration not stated)	inconclusive: 21%
CCCOc1ccc(C(=O)Nc2ccc(S(=O)(=O)N3C[C@@H]4C[C@@H](C3)c3cccc(=O)n3C4)cc2)cc1	active: 31.3%
C[C@@H]1CN([C@H](C)CO)C(=O)c2cc(C3=CCCCC3)cnc2O[C@@H]1CN(C)C(=O)Nc1ccc(F)cc1	active: 33.7%
CNc1nc(NCc2cccc(OC)c2)c2sccc2n1	inconclusive: 36.4%
COc1ccccc1C1Nc2ccccc2NC2=C1C(=O)CC(C)(C)C2 (configuration not stated)	inactive: 0.381%
CC(=O)c1ccc(OCc2cc(C(=O)N3CCCCCCC3)no2)cc1	inconclusive: 21.2%
C[C@H]1CN([C@@H](C)CO)C(=O)c2cccc(NS(=O)(=O)c3cccs3)c2O[C@@H]1CN(C)C(=O)Nc1cccc2ccccc12	inconclusive: 29.6%
Cc1cc(C(=O)CSc2ncnc3ccccc23)c(C)n1C1CC1	active: 28%
CSc1nc(N)c(C(=O)NC2CCCCC2)s1	inconclusive: 42.4%
Cc1ccc(S(=O)(=O)Nc2ccc3c(c2)C(=O)N([C@@H](C)CO)C[C@@H](C)[C@H](CN(C)S(=O)(=O)c2cccs2)OCCCC[C@H](C)O3)cc1	inactive: -5.3%
O=C(Cc1ccccn1)NCC[C@@H]1CC[C@@H](NC(=O)CN2CCOCC2)[C@H](CO)O1	inactive: 4.01%
Cc1noc(C)c1NC(=O)Nc1cccc2c1O[C@@H](CN(C)Cc1ccncc1)[C@@H](C)CN([C@@H](C)CO)C2=O	inactive: -3.14%
CCOC(=O)c1sc(NC(=O)c2ccncc2)c(C#N)c1C	active: 43.3%
CN(C)CCOC(=O)COc1ccc(Cl)cc1	inconclusive: 22.1%
O=S1(=O)CC(N2CCN(CCO)CC2)CN1CCc1ccccc1 (configuration not stated)	inconclusive: 40.7%
C[C@H]1CN([C@@H](C)CO)C(=O)c2cccc(NS(=O)(=O)c3ccccc3)c2O[C@H]1CN(C)Cc1ccncc1	inconclusive: 21.6%
O=C(C[C@H]1CC[C@H]2[C@@H](COC[C@@H](O)CN2S(=O)(=O)c2ccccc2)O1)N[C@H]1CCN(Cc2ccccc2)C1	inconclusive: 54.7%
Nc1cc(N)c2c(c1)C(=O)c1ccccc1-2	inconclusive: 33.1%
Cc1ccc2nc(CSc3nc(C)nc4c3oc3ccccc34)[nH]c2c1	inconclusive: 31.1%

Look-ups from above:
In CPE inhibition, C[C@H]1CN([C@@H](C)CO)C(=O)c2cccc(NS(=O)(=O)c3cccs3)c2O[C@@H]1CN(C)C(=O)Nc1cccc2ccccc12 is listed with inconclusive: 29.6%
In CPE inhibition, C[C@H](CO)N1C[C@H](C)[C@H](CN(C)CC2CCOCC2)Oc2ncc(C#C[C@@H](C)O)cc2C1=O is listed with inactive: -2.5%

Following part:

SMILES	CPE inhibition
COc1cccc(S(=O)(=O)N[C@H]2CC[C@@H](CCn3cc(-c4ccccn4)nn3)O[C@H]2CO)c1	inactive: -2.07%
Cc1cc(S(=O)(=O)NCc2ccccc2)ccc1OCC(=O)NCc1cccnc1	inconclusive: 20%
CC(C)NC(=O)Nc1ccc2c(c1)C(=O)N([C@@H](C)CO)C[C@@H](C)[C@H](CN(C)S(=O)(=O)c1ccc(Cl)cc1)O2	inconclusive: 29.3%
N#Cc1cccc(-c2ccc(C3[C@@H]4CN(C(=O)C5CC5)C[C@H]3N4)cc2)c1 (some centres not stated)	inconclusive: 24.4%
CC(C)NC(=O)N(C)C[C@@H]1Oc2ccc(NC(=O)CCCN(C)C)cc2C(=O)N([C@@H](C)CO)C[C@@H]1C	inactive: 4.88%
CC(=O)N1[C@@H]2Cn3c(ccc(-c4ccc(F)cc4)c3=O)[C@H]1[C@@H](C(=O)N(C)C)[C@@H]2CO	active: 27.2%
O=C(Nc1ccccc1)N[C@H](Cc1ccccc1)Cn1cc(CN2C(=O)COC[C@H]2c2ccccc2)nn1	active: 20.6%
CC1(C)OC(=O)C2=C(C[C@@H](CCc3ccccc3)O[C@@H]2c2ccc(Cl)cc2)O1	inconclusive: 49%
COc1cccc(S(=O)(=O)Nc2cccc(C(=O)N3CCCC3)c2)c1	inconclusive: 25.8%
C[C@H](CO)N1C[C@H](C)[C@@H](CN(C)CC2CCOCC2)Oc2ncc(-c3ccc(F)cc3)cc2C1=O	inconclusive: 13.1%
C#Cc1ccc([C@H]2C=C(C(=O)NCc3ccccc3)O[C@@H](OCC)[C@@H]2CCCO)cc1	inactive: -5.67% and inactive: -0.724%
COc1ccc(S(=O)(=O)NCC2CCC(C(=O)NCC(OC)OC)CC2)cc1 (configuration not stated)	inconclusive: 21%
CC(N)c1csc(Nc2ccc(C(=O)NCCCO)cn2)n1 (configuration not stated)	active: 30.2%
C[C@@H]1CN([C@@H](C)CO)C(=O)c2cc(NS(=O)(=O)c3ccccc3)ccc2O[C@H]1CN(C)C(=O)Nc1cccc2ccccc12	active: 27%
Cc1ccc(COc2ccc3c(c2)OCO3)cc1	inconclusive: 25.4%
C#Cc1ccc([C@H]2C=C(C(=O)OCC=C)O[C@@H](OCC)[C@@H]2CCCO)cc1	active: 48.7%
O=C(CCNC(=O)OCC1c2ccccc2-c2ccccc21)NOCc1ccccc1	active: 28.5%
CC(C)CC#Cc1ccc2c(c1)O[C@@H](CN(C)C(=O)Cc1cccnc1)[C@H](C)CN([C@H](C)CO)S2(=O)=O	inactive: 5.21%
C[C@H]1CN([C@@H](C)CO)C(=O)c2cc(C#Cc3ccccc3F)cnc2O[C@H]1CN(C)C(=O)c1ccc2c(c1)OCO2	inconclusive: 26.2%
CO[C@@H]1CN(C)C(=O)c2ccc(NC(=O)c3ccccc3)cc2OC[C@H](C)N(C(C)=O)C[C@@H]1C	inactive: 1.41%
Cc1ccc(SCCC(=O)NC2CC2)cc1	inactive: -5.05%
O=S(=O)(c1ccccc1F)N1[C@@H]2CNC[C@H]1C2c1ccc(/C=C/c2ccccc2)cc1 (some centres not stated)	inactive: -2.42% and inconclusive: 31.9%
COc1ccc(-c2cc(=O)oc3cc(OCC(=O)N[C@@H](Cc4c[nH]c5ccccc45)C(=O)O)ccc23)cc1	inconclusive: 77.6%
COCC(=O)N1[C@H](C#N)[C@H](c2ccc(C#Cc3ccccc3F)cc2)[C@H]1CO	inconclusive: 34.2%
